Results taken from patent US20210301021A1 (NANJING GENSCRIPT BIOTECH, published 2021).
Results are given in words; binding and its absence hold for the method and conditions named. Some entries that bind do so weakly or less than the wild type.

Sequences of proteins named here, by UniProt entry; tags and fusion partners are left off. Residues count along the entry.
UniProt P16410, residues 36-161: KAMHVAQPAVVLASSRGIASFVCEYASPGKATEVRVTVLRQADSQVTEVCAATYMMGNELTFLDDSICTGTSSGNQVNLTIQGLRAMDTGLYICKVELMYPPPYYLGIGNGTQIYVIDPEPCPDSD

Legend:
[1] = biological target: antigen of the thermal stability ELISA (CTLA4; construct not stated) (UniProt P16410); assay: ELISA on the antigen after treatment at 40 C for 7 days (D7) and 14 days (D14), with the untreated sample (D0) as control
[2] = biological target: antigen of the thermal stability ELISA (CTLA4; construct not stated) (UniProt P16410); assay: ELISA on the antigen after treatment for 20 minutes at room temperature, 30, 40, 50 or 60 C
[3] = biological target: antigen of the thermal stability ELISA (CTLA4; construct not stated) (UniProt P16410); assay: ELISA after heat treatment (40 C for up to 14 days; temperature gradient for 20 minutes)
[4] = biological target: antigen of the thermal stability ELISA (CTLA4; construct not stated) (UniProt P16410); assay: ELISA after heat treatment (40 C for up to 14 days)

Row | binding [1] | binding [2] | binding [3] | binding [4] | Binder
1 | binds | binds | binds | – | AH01674 humanized anti-human CTLA4 monoclonal antibody (human IgG1/kappa) (antibody, V domains shown, also called AH1674) VH: QVQLVQSGAEVKKPGASVKVSCKASGYTFTSYWINWVRQAPGQGLEWMGRIAPGSGTTYYNEMFTGRVTMTRDTSTSTAYMELSSLRSEDTAVYYCARGDYFDYWGQGTMVTVSS VL: DIQLTQSPSFLSASVGDRVTITCSASKSVSYIHWYQQKPGKAPKLLIYDTSTLASGVPPRFSGSGSGPEFTLTISSLQPEDFATYYCQQRTTYPLTFGQGTKLEIK
2 | binds | – | – | binds | Chimeric antibody (antibody, V domains shown, also called Chimeric IgG) VH: QVHLQQSGDVLVKPGASVNLSCKASGYTFTSYWINWIKQRPGQGLEWIGRIAPGSGTTYYNEMFTGKATLTVVTSSTTAYIQLSSLSFEDSAVYFCARGDYFDYWDQGTTLTVSS VL: QIVLTQSPAIMSASPGGKVTITCSASKSVSYIHWFQQKPGTSPKLLIYDTSTLASGVPPRFSGSGSGPSYSLTISRMEAEDAATYYCQQRTTYPLTFGGGTKLEVR
